Source: paper PMC4605787
Results are given in words; binding and its absence hold for the method and conditions named. Binding seen in cells or lysates may run through a third protein. These calls come from enrichment with a bait or labelling near it, and not all partners need be listed.

Sequences of proteins named here, by UniProt entry; tags and fusion partners are left off.
UniProt P47197: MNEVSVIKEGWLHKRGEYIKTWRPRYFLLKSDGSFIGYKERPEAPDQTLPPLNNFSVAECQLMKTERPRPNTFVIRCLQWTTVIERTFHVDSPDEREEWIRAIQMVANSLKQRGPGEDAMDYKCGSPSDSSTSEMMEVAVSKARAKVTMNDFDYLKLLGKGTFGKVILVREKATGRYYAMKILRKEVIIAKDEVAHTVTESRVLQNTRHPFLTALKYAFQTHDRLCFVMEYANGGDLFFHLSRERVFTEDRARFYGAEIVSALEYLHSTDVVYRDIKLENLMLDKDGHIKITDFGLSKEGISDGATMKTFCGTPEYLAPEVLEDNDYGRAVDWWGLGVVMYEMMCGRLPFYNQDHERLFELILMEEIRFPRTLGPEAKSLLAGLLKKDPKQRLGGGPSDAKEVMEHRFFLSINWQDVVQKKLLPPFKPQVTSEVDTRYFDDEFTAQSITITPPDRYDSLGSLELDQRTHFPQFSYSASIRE

B1: Protein CDV3 homolog (protein, UniProt Q5XIM5 1-236)
chain: MAETEERSLDNFFAKRDKKKKKERSSRAANAASGAGGSSAAAGSRPGDGGSLGSGARSGDGGSSGSGARSGDGGSLGSGARSGDGGTSRSGDGGSAGPGGKAITKDENEWKEFEQKEVDYSGLRVQAMQISEKEDDDNEKREDPGDNWEEGGGGSGAEKSSGPWNKTALVQAPPAPVTVTETPEPAMPSGVYRPPGARLTTTRKTPQGPPEIYSDTQFPSLQSTAKHVESRNRYLK
B2: Transgelin (protein, UniProt P31232 1-201)
chain: MANKGPSYGMSREVQSKIEKKYDEELEERLVEWIVMQCGPDVGRPDRGRLGFQVWLKNGVILSKLVNSLYPEGSKPVKVPENPPSMVFKQMEQVAQFLKAAEDYGVTKTDMFQTVDLFEGKDMAAVQRTVMALGSLAVTKNDGHYRGDPNWFMKKAQEHKREFTDSQLQEGKHVIGLQMGSNRGASQAGMTGYGRPRQIIS
B3: Thioredoxin-like protein 1 (protein, UniProt Q920J4 1-289)
chain: MVGVKPVGSDPDFQPELSGAGSRLAVVKFTMRGCGPCLRIAPAFSSMSNKYPQAVFLEVDVHQCQGTAATNNISATPTFLFFRNKVRIDQYQGADAVGLEEKIKQHLENDPGSNEDTDIPKGYMDLMPFINKAGCECLNESDEHGFDNCLRKDLSFLESDCDEQLLITVAFNQPVKLYSMKFQGPDNGQGPKYVKIFINLPRSMDFEEAERSEPTQALELTEDDIKEDGIVPLRYVKFQNVNSVTLFVQSNQGEEETTRISYFTFIGTPVQATNMNDFKRVVGKKGESH
B4: Ubiquitin-conjugating enzyme E2 N (protein, UniProt Q9EQX9 1-152)
chain: MAGLPRRIIKETQRLLAEPVPGIKAEPDESNARYFHVVIAGPQDSPFEGGTFKLELFLPEEYPMAAPKVRFMTKIYHPNVDKLGRICLDILKDKWSPALQIRTVLLSIQALLSAPNPDDPLANDVAEQWKSNEAQAIETARAWTRLYAMNNI
B5: Nucleolar RNA helicase 2 (protein, UniProt Q3B8Q1 1-782)
chain: MPGKLRSASKSESEGTEESMETLQKPSEKKTRKEKPKSKTDEATEGVEEAASSKVKAVKKKGPSEDDVGPPKSKKAKKQEEEPQDDPASKSKTSKKKKEPLEKKAPSAKTKEMKAEEPSEEEADAPKPKKTKKGKEANGDVGEKSPGLKNGLSHPKPDSSSTQAPGEESETEKEIPVEQKEGAFSNFPISEETVKLLKARGVNFLFPIQAKTFHHVYSGKDLIAQARTGTGKTFSFAIPLIEKLQGGLQERKRGRAPQVLVLAPTRELANQVSKDFSDITKKLSVACFYGGTPYGGQIERMRSGIDILVGTPGRIKDHLQNGKLDLTKLKHVVLDEVDQMLDMGFADQVEEILCVAYKKDSEDNPQTLLFSATCPHWVFNVAKKYMKSTYEQVDLIGKKTQKAAITVEHLAIKCHWTERAAVIGDVIRVYSGHQGRTIIFCETKKDAQELSQNTCIKQDAQSLHGDIPQKQREITLKGFRNGNFGVLVATNVAARGLDIPEVDLVVQSCPPKDVESYIHRSGRTGRAGRTGVCICFYQHKEEYQLAQVEQKAGIKFKRIGVPSATEIIKASSKDAIRLLDSVPPTAIGHFKQSAEKLIEEKGAVEALAAALAHISGATSVDQRSLINSQAGFVTMILRCSVEMPNISYAWKELKEQLGESIDAKVKGMVFLKGKLGVCFDVRTEAVTEIKEKWHDSRRWQLTVATEQPELEGPPEGYRGGRGQRDGSRGSFRGQRGGSRNFRGQGQRGGSRNFRGQRPGGGNKSNRSPNKGQKRSFSKAFGQ

Biological target: Akt2 (rat (endogenous in L6 myoblasts)) (UniProt P47197)
Assay: affinity purification with mass spectrometry; endogenous Akt2 immunoprecipitated (2 ug rabbit polyclonal anti-Akt2, protein A beads, overnight, 4°C) from 1 mg L6 myoblast lysate precleared with NIgG; cells serum-starved, with or without 100 nM insulin for 15 min; lysis buffer 50 mM HEPES pH 7.6, 150 mM NaCl, 1% Triton; 1D-SDS-PAGE, in-gel trypsin digestion, HPLC-ESI-MS/MS, label-free quantification; hits absent from all NIgG controls

Row | Binder | binding
1 | B1 | binds
2 | B2 | binds
3 | B3 | binds
4 | B4 | binds
5 | B5 | binds
